Results: paper doi:10.1101/557116 (bioRxiv, 2019)
Results are given in words; binding and its absence hold for the method and conditions named. For some of these results: Binding seen in cells or lysates may run through a third protein. Some binding calls cover weakened binding; strength is not graded here. For some of these results: Where a sequence is shown, tags or fusion partners need not be part of it.

Protein sequences, listed by entry. Tags and fused reporters are not part of them. Lines headed by an entry give the natural chain unless they say otherwise; changes in a name come on top. Residues count along the entry.
UniProt P59901, 24-223: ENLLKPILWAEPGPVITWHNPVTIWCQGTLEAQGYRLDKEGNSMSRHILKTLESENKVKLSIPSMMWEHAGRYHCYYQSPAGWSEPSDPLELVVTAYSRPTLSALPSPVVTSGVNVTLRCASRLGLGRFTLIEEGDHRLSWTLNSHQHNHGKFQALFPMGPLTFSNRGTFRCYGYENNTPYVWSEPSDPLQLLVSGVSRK

Legend:
HA-BST2 WT (human) = HA-BST2 WT (human) (UniProt Q10589); experiment: co-IP
[1] = target: T1, HA-BST2 WT (human), Q10589; experiment: co-IP; details: remark: other sources report otherwise
T1 chain: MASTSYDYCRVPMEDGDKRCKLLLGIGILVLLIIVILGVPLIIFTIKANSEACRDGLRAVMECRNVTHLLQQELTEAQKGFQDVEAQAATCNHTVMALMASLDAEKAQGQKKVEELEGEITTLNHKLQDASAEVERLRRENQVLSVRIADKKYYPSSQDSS

bacILT7 24-223 = bacILT7 24-223 (human, UniProt P59901 24-223, fluorescent label (Protein Labeling Kit RED-NHS)); experiment: MST

## Myc-BST2 R136A (from UniProt Q10589 1-161)
HA-BST2 WT (human)
  binding: binds

B1: HA-BST2 WT, Q10589 1-161 (protein)
chain: MASTSYDYCRVPMEDGDKRCKLLLGIGILVLLIIVILGVPLIIFTIKANSEACRDGLRAVMECRNVTHLLQQELTEAQKGFQDVEAQAATCNHTVMALMASLDAEKAQGQKKVEELEGEITTLNHKLQDASAEVERLRRENQVLSVRIADKKYYPSSQDSS
[1]
  binding: binds

B2: BST2 ectodomain (residues 47 to 159) D129A (domain or fragment, human, UniProt Q10589 47-159, looked up)
chain: KANSEACRDGLRAVMECRNVTHLLQQELTEAQKGFQDVEAQAATCNHTVMALMASLDAEKAQGQKKVEELEGEITTLNHKLQAASAEVERLRRENQVLSVRIADKKYYPSSQD
bacILT7 24-223
  binding: no binding

B3: BST2 ectodomain (residues 47 to 159) R136A (domain or fragment, human, UniProt Q10589 47-159, looked up)
chain: KANSEACRDGLRAVMECRNVTHLLQQELTEAQKGFQDVEAQAATCNHTVMALMASLDAEKAQGQKKVEELEGEITTLNHKLQDASAEVEALRRENQVLSVRIADKKYYPSSQD
bacILT7 24-223
  binding: no binding
